Laboratory results taken from the supplement of paper PMC12873370.
Values joined by “and” are separate entries in the source; they are usually repeats but may differ in a detail not shown here. Equal entries are not always repeated. The list shows a part of the results. Repeats are few or missing, and single values can be far off.

Key:
[1] = test system: MEPP (mouse ovarian epithelium Trp53/Pten KO); assay: cell viability relative to untreated (fraction); higher = less growth inhibition; conditions: 5 µM; 3 days
[2] = test system: PREPP (mouse prostate epithelium Trp53/Pten KO); assay: as above; conditions: 5 µM; 3 days

Compound	cell viability [1]	cell viability [2]
CC[C@@H]1C(=O)OC[C@@H]1Cc1cncn1C	1.03	0.898
CC[C@@]1(O)C(=O)OCc2c1cc1n(c2=O)Cc2cc3cc(O)ccc3nc2-1	0.942 and 0.551	0.625 and 0.712
CCCCCCCCCCCCCC(=O)O	0.984	0.858
OC(Cn1cncn1)(Cn1cncn1)c1ccc(F)cc1F	0.93	0.97
C#C[C@]1(O)CC[C@H]2[C@@H]3CCc4cc(O)ccc4[C@H]3CC[C@@]21C	1.16	0.914
C1CNCCNCCNCCN1	0.77	0.773
O=C1O[C@@H]2[C@@H](OC(=O)c3cc(O)c(O)c(O)c3-c3c1cc(O)c(O)c3O)[C@H](O)O[C@@H]1COC(=O)c3cc(O)c(O)c(O)c3-c3c(O)c(O)c4oc(=O)c5c(c(O)c(O)c6oc(=O)c3c4c65)-c3c(cc(O)c(O)c3O)C(=O)O[C@@H]21	1.28	0.794
NC(=O)[C@@H](N)Cc1c[nH]c2ccccc12	0.845	0.931
N[C@@H](C(=O)N[C@@H]1C(=O)N2C(C(=O)O)=C(Cl)CS[C@H]12)c1ccccc1	1.21	0.98
C[C@H]1[C@H](C)CC[C@]2(C(=O)O)CC[C@]3(C)C(=CC[C@@H]4[C@@]5(C)C[C@@H](O)[C@H](O)[C@@](C)(CO)[C@@H]5[C@H](O)C[C@]43C)[C@H]12	1.01	0.947
CS(=O)(=O)c1ccc([C@@H](O)[C@@H](CO)NC(=O)C(Cl)Cl)cc1	1	1.2
O=c1[nH]cnc2nc[nH]c12	0.884	0.963
C=C(C)[C@@H]1CC[C@]2(C(=O)O)CC[C@]3(C)[C@H](CC[C@@H]4[C@@]5(C)CC[C@H](O[C@@H]6OC[C@H](O)[C@H](O)[C@H]6O[C@@H]6O[C@@H](C)[C@H](O)[C@@H](O)[C@H]6O)[C@@](C)(CO)[C@@H]5CC[C@]43C)[C@@H]12	0.936	0.698
C/C1=C\CC(C)(C)/C=C/C(=O)/C(C)=C/CC1	1.06	0.945
CC(=O)OC/C=C(C)/C=C/C=C(C)/C=C/C1=C(C)CCCC1(C)C	1.23	0.849
